# Results from PubChem BioAssay AID624297 (National Center for Advancing Translational Sciences (NCATS), 2012).
# About 6,200 (1.8%) of roughly 340,000 compounds were called active. The inconclusive results got no clear call from the source; some entries with a clear call stand among them for comparison. Calls come from the whole dose curve; as a rule, active = well fitted activation curve with a large enough effect; inconclusive = small, poorly fitted or top-dose-only effect; inactive = no such curve, though single readings can be large or run the other way. Where the call is inconclusive, the potency comes from a doubtful curve fit.
# Test: A quantitative high throughput screen for small molecules that induce DNA re-replication in SW480 colon adenocarcinoma cells. Note: nearly all actives have a fitted effect of over 55% in size.
# Conditions: Hoechst DNA content imaging, 48 h; series mostly up to 46.1 µM
# In short: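 Image-based read-out: total Hoechst fluorescence of nuclei (405 nm excitation, 500-530 nm emission), with hits raising the fraction of high-intensity nuclei. SW480 colon cells incubated 48 hr with compounds at 37 C.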
# Potency is the fitted concentration of half-maximal effect.
row,SMILES,Potency
1,CCCCOC(=O)c1ccc(-c2ccc(/C=N/NC(=S)NCC)o2)cc1,"inconclusive: 8.2 µM [activator, partial curve]"
2,Cc1ccc(/C=N/NC(=O)CCSc2ccccc2)cc1,"inconclusive: 23.1 µM [activator, partial curve, poor fit]"
3,COc1cc2c(cc1OC)C(C)N(C(=O)c1cc3c(C)cc(C)cc3[nH]1)CC2 (centres undefined),"inconclusive: 25.9 µM [activator, single point]"
4,COc1ccc(N(CC(=O)Nc2cc(C)ccc2C)S(=O)(=O)c2c(C)noc2C)cc1,"inconclusive: 0.92 µM [activator, full curve]"
5,CC(C)c1ccccc1NC(=O)COc1ccc(C(=O)NCCc2ccccc2)cc1,"inconclusive: 25.9 µM [activator, single point]"
6,COCCNC(=O)c1ccc2c(c1)ncn2-c1cccc(C)c1,"inconclusive: 29.1 µM [activator, single point]"
7,COC(=O)C1=C(C(=O)OC)[C@@H]2N(C)c3ccc(OC)cc3[C@@]23C[C@@H](C(=O)OC)N(C(=O)c2ccc(Br)cc2)C3=N1,inactive
8,CC(CCc1ccccc1)NC(=O)C1CCN(S(=O)(=O)N2CCCCC2)CC1 (centres undefined),inactive
9,N#Cc1c(Nc2ccccc2C(F)(F)F)s[nH]c1=O,"inconclusive: 29.1 µM [activator, single point]"
10,O=C1CCC(=O)N1CCC(c1ccc(F)cc1)c1ccco1 (centres undefined),inactive
11,CCC(=O)N1CCN(c2ccc(NC(=S)NC(=O)c3ccc(OC)c([N+](=O)[O-])c3)cc2)CC1,inactive
12,N=c1oc2ccccc2cc1C(=O)Nc1cccc(F)c1,"inconclusive: 29.1 µM [activator, single point]"
13,O=C(O/N=C\c1ccc(N2CCCCC2)c([N+](=O)[O-])c1)c1ccc(Cl)cc1Cl,"inconclusive: 9.2 µM [activator, partial curve]"
14,COc1ccc(CCNC(=O)C2CCN(S(=O)(=O)c3cccc4cccnc34)CC2)cc1OC,"inconclusive: 0.0046 µM [activator, full curve, poor fit]"
15,COc1ccc(NC(=O)c2nc3nccc(C)n3n2)cn1,"inconclusive: 29.1 µM [activator, single point]"
16,Cc1ccc(C(=O)Nc2ccccc2C(=O)NCc2ccco2)cc1S(=O)(=O)N1CCCCC1,inactive
17,COc1cc(/C=N/N(C)C)ccc1OC(=O)c1cccs1,inactive
18,CC(C)N1CCC(n2nccc2NC(=O)c2ccc3c(c2)OCO3)CC1,inactive
19,COc1ccc(C(=O)NNC(=O)C(=O)NC(C)c2ccccc2)cc1OC (centres undefined),inactive

# Fetched by compound from above (two):
row,SMILES,Potency
13,O=C(O/N=C\c1ccc(N2CCCCC2)c([N+](=O)[O-])c1)c1ccc(Cl)cc1Cl,"inconclusive: 9.2 µM [activator, partial curve]"
4,COc1ccc(N(CC(=O)Nc2cc(C)ccc2C)S(=O)(=O)c2c(C)noc2C)cc1,"inconclusive: 0.92 µM [activator, full curve]"
